In PMC3516556:
These are yes or no findings as the source states them, for the method shown. For some assays here: Binding calls can cover weak binding; strength is not graded here. For some assays here: Where a sequence is shown, tags or fusion partners need not be part of it. For some assays here: In cells and extracts the contact can be indirect. Each block holds one molecule with its values, some of them ahead of it.

Experiments:
[1] = molecular target: T1, Full length mouse Neto1 (expressed in COS-7) (mouse) (UniProt Q8R4I7); assay: co-IP; lysates of transfected COS-7 cells (RIPA buffer), immunoprecipitation with anti-Neto2 antibodies (Neto1 panel: Figure 3D), immunoblot
T1 sequence: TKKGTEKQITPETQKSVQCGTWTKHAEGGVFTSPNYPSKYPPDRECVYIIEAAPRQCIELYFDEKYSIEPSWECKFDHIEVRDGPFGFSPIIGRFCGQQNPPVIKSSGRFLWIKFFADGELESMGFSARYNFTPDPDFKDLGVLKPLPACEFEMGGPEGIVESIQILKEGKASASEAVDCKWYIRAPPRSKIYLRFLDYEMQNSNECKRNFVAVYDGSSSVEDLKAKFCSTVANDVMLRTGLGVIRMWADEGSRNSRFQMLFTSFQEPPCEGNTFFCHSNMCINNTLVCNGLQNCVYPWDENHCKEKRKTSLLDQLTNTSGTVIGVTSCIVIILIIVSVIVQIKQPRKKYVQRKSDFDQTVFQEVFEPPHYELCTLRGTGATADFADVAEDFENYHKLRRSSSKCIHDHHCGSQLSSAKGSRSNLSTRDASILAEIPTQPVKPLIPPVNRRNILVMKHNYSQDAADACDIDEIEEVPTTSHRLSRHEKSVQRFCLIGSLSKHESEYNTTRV

[2] = molecular target: T2, Neto2 C-terminal truncation mutant (Neto2Δ7), lacking the last seven C-terminal residues (mouse) (UniProt Q8BNJ6); assay: as above
T2 sequence: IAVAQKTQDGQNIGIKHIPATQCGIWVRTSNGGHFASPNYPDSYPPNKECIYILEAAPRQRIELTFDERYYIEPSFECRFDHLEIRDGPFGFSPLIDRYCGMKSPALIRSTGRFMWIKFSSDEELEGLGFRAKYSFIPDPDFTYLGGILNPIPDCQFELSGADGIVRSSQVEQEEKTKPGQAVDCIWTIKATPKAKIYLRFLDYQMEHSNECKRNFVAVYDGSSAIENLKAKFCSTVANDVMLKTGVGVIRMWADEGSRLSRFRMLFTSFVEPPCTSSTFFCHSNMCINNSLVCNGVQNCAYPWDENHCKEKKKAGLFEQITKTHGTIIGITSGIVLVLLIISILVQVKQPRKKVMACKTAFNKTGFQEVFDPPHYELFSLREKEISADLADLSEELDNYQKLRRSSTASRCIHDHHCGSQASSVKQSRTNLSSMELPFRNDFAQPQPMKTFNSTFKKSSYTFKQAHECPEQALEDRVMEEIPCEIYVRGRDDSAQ

[3] = molecular target: T3, Full length mouse Neto2 (expressed in COS-7) (mouse) (UniProt Q8BNJ6); assay: as above
T3 sequence: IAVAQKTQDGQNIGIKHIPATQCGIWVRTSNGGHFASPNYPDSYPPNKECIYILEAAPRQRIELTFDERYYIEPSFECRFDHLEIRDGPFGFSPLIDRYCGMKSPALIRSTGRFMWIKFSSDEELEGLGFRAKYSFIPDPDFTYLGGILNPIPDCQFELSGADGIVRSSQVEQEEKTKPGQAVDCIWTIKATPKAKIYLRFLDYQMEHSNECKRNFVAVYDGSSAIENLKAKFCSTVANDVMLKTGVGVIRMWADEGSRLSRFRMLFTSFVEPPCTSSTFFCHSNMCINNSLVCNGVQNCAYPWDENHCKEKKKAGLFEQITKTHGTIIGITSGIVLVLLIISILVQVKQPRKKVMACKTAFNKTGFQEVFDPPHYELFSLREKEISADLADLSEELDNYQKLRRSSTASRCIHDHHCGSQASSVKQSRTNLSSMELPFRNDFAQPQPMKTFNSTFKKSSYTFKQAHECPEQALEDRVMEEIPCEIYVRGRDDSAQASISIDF

[4] = molecular target: T4, GST fused to the Neto2 cytoplasmic domain deletion mutant ΔIDF (GST-Neto2(CDΔIDF)) (mouse) (UniProt Q8BNJ6); assay: pull-down; GST fusion proteins on glutathione agarose beads incubated with COS-7 cell lysates overexpressing GRIP(PDZ4-7)-myc overnight at 4°C; washed with RIPA buffer minus SDS and DOC; immunoblot; only the target purified
T4 sequence: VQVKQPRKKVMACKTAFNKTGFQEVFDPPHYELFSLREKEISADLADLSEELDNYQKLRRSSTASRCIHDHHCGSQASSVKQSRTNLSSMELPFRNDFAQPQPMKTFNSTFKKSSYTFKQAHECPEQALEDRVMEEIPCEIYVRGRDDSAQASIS

[5] = molecular target: T5, GST fused to the cytoplasmic domain of Neto2 (GST-Neto2(CD)) (mouse) (UniProt Q8BNJ6); assay: as above
T5 sequence: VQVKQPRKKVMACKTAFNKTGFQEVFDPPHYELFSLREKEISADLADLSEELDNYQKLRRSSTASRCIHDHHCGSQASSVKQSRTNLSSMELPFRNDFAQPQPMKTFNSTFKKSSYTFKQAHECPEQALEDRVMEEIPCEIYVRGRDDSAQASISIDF

[6] = molecular target: T6, Neto2 cytoplasmic domain truncation mutant ΔIDF (Neto2(CD-ΔIDF), amino acids 368-522) fused to the GAL4 DNA-binding domain (mouse) (UniProt Q8BNJ6); assay: two-hybrid; GAL4 DNA-binding domain fusions in pDBLeu, GAL4 activation domain fusions in pPC86, MaV203 cells; growth on -Trp/-Leu/-His and lacZ reporter (ß-galactosidase assay)
T6 sequence: T4 sequence

[7] = molecular target: T7, Neto1 cytoplasmic domain (Neto1(CD), amino acids 345-533), two-hybrid bait (mouse) (UniProt Q8R4I7); assay: as above
T7 sequence: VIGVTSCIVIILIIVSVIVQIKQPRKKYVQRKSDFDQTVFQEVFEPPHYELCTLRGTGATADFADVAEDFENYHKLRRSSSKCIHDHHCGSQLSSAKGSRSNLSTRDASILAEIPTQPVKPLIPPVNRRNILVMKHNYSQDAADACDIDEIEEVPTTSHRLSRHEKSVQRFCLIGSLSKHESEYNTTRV

[8] = molecular target: T8, Neto2 cytoplasmic domain (Neto2(CD), amino acids 368-525) fused to the GAL4 DNA-binding domain (mouse) (UniProt Q8BNJ6); assay: as above
T8 sequence: T5 sequence

[9] = molecular target: GRIP (native, mouse brain) (mouse (endogenous in cerebellum and whole brain)); assay: co-IP; mouse whole brain membrane fractions, immunoprecipitation with an anti-GRIP antibody, normal rabbit IgG as negative control
[10] = molecular target: GRIP (native, mouse brain) (mouse (endogenous in cerebellum and whole brain)); assay: co-IP; mouse cerebellar membrane fractions, immunoprecipitation with an anti-GRIP antibody, normal rabbit IgG as negative control

binding [6]: no binding
binding [7]: no binding
binding [8]: binds
Molecule: GRIP(PDZ4-7) fused to the GAL4 activation domain (mouse) (domain or fragment)

binding [9]: binds
binding [10]: binds
B2: Neto2 (native, mouse brain) (protein, UniProt Q8BNJ6 23-525)
chain: T3 sequence

Further lines, the molecule ahead of its results:

Molecule: C-terminal myc-tagged GRIP(PDZ4-7) (mouse) (domain or fragment)
binding [1]: no binding
binding [2]: no binding
binding [3]: binds
binding [4]: no binding
binding [5]: binds

B1: Neto1 (native, mouse whole brain) (protein, UniProt Q8R4I7 23-533)
chain: T1 sequence
binding [9]: no binding
